Tested on: Experimental Amnesia caused in Rats by Scopolamine
Assay: Preventive effect against experimental amnesia caused in rats by scopolamine (passive avoidance, intraperitoneal administration)
Assay type: in vivo, Wister male rats
Details: i.p., scopolamine 3 mg/kg i.p. after learning
Protocol: Several of the anti-prolyl endopeptidase compounds according to the present invention were checked for their ability to prevent the inhibition of long-term memory fixation by scopolamine. […] One hour after the administration, electric shocks were applied to the rats so that they would acquire passive avoidance learning. Immediately thereafter, scopolamine was administered intraperitoneally to each rat in an amount of 3 mg per kg of body weight.
The results of the test were assessed both 24 hours and 48 hours after the administration of scopolamine. The number of amnesic rats and of sound rats was counted for each of the control group (rats to which the test compounds were not administered but to which only scopolamine and physiological saline were administered intraperitoneally) and the treated group (rats to which both the test compound and scopolamine were administered).

## O=C[C@@H]1CCCN1C(=O)[C@@H]1CCCN1C(=O)CCCc1ccccc1 [SUAM 1231, N--(4-phenyl)butanoyl--Pro--Pro--CHO]
20 μg/kg
  Learning: Initial avoidance time: 3.1 s
  Learning: No. of avoidances during learning: 2.4

## C[C@H](NC(=O)CCCc1ccccc1)C(=O)N1CCC[C@H]1C=O [SUAM 1110, N--(4-phenyl)butanoyl--Ala--Pro--CHO]
250 μg/kg
  Learning: Initial avoidance time: 5.2 s
  Learning: No. of avoidances during learning: 3.0
1 mg/kg
  Learning: Initial avoidance time: 3.8 s
  Learning: No. of avoidances during learning: 1.6

## CC(C)CC(NC(=O)CCCc1ccccc1)C(=O)N1CCCC1C=O (stereo not shown) [SUAM 1115, N--(4-phenyl)butanoyl--Leu--Pro--CHO]
25 μg/kg
  Learning: Initial avoidance time: 2.7 s
  Learning: No. of avoidances during learning: 2.4
100 μg/kg
  Learning: Initial avoidance time: 2.5 s
  Learning: No. of avoidances during learning: 3.0
250 μg/kg
  Learning: Initial avoidance time: 1.5 s
  Learning: No. of avoidances during learning: 3.0

## CC(C)[C@H](NC(=O)CCCc1ccccc1)C(=O)N1CCC[C@H]1C=O [SUAM 1117, N--(4-phenyl)butanoyl--Val--Pro--CHO]
25 μg/kg
  Learning: Initial avoidance time: 1.9 s
  Learning: No. of avoidances during learning: 2.2
100 μg/kg
  Learning: Initial avoidance time: 3.2 s
  Learning: No. of avoidances during learning: 3.2
250 μg/kg
  Learning: Initial avoidance time: 2.4 s
  Learning: No. of avoidances during learning: 2.4
1 mg/kg
  Learning: Initial avoidance time: 3.8 s
  Learning: No. of avoidances during learning: 2.2

## CCCCC(NC(=O)CCCc1ccccc1)C(=O)N1CCCC1C=O (stereo not shown) [SUAM 1333, N--(4-phenyl)butanoyl--norLeu--Pro--CHO]
20 μg/kg
  Learning: Initial avoidance time: 1.7 s
  Learning: No. of avoidances during learning: 2.3

From patent publication US4873342A, “Dipeptide derivative and synthesis and use thereof” (Suntory Limited, priority 1985, dated 1989)
